We go through 1 sequence from publication PMC1950744, “Transcription Termination Defective Mutants of Rho: Role of Different Functions of Rho in Releasing RNA from the Elongation Complex” (Journal of Molecular Biology, 2007).

The exact form of at least one protein or probe is not confirmed. For part of these data: At least one verdict rests on a figure or table, not on a statement of the authors.

Data set [1] deals with Rho P279S (Escherichia coli) (UniProt P0AG30). Nature of the data set: ATPase activation (secondary site). Conditions: 1 uM (dC)34, 1 mM ATP, binding defect or slow hydrolysis; 25 mM Tris-HCl pH 8.0, 5 mM MgCl2, 50 mM KCl, 1 mM DTT, 0.1 mg/ml BSA, 37 C, 5 min; 10 nM labeled oligo; Rho as hexamer; recombinant protein; protein details: C-terminal His.
For data set [2], the target named is Rho G51V (Escherichia coli) (UniProt P0AG30). Nature of the data set: ATPase activation (secondary site). Conditions: 1 uM (dC)34, 1 mM ATP, binding defect or slow hydrolysis; 25 mM Tris-HCl pH 8.0, 5 mM MgCl2, 50 mM KCl, 1 mM DTT, 0.1 mg/ml BSA, 37 C, 5 min; 10 nM labeled oligo; Rho as hexamer; recombinant protein; protein details: C-terminal His.
In data set [3] the target is Rho Y274D (Escherichia coli) (UniProt P0AG30). Nature of the data set: ATPase activation (secondary site). Conditions: 1 uM (dC)34, 1 mM ATP, binding defect or slow hydrolysis; 25 mM Tris-HCl pH 8.0, 5 mM MgCl2, 50 mM KCl, 1 mM DTT, 0.1 mg/ml BSA, 37 C, 5 min; 10 nM labeled oligo; Rho as hexamer; recombinant protein; protein details: C-terminal His.
Data set [4] concerns the target Rho N340S (Escherichia coli) (UniProt P0AG30). Nature of the data set: ATPase activation (secondary site). Conditions: 1 uM (dC)34, 1 mM ATP, binding defect or slow hydrolysis; 25 mM Tris-HCl pH 8.0, 5 mM MgCl2, 50 mM KCl, 1 mM DTT, 0.1 mg/ml BSA, 37 C, 5 min; 10 nM labeled oligo; Rho as hexamer; recombinant protein; protein details: C-terminal His.
For data set [5], the target named is Rho G324D (Escherichia coli) (UniProt P0AG30). Nature of the data set: ATPase activation (secondary site). Conditions: 1 uM (dC)34, 1 mM ATP, binding defect or slow hydrolysis; 25 mM Tris-HCl pH 8.0, 5 mM MgCl2, 50 mM KCl, 1 mM DTT, 0.1 mg/ml BSA, 37 C, 5 min; 10 nM labeled oligo; Rho as hexamer; recombinant protein; protein details: C-terminal His.
Data set [6] concerns the target Rho WT (Escherichia coli) (UniProt P0AG30). Nature of the data set: EMSA. Conditions: 25 mM Tris-HCl pH 8.0, 5 mM MgCl2, 50 mM KCl, 1 mM DTT, 0.1 mg/ml BSA, 37 C, 5 min; 10 nM labeled oligo; Rho as hexamer; recombinant protein; protein details: C-terminal His.

As to CCCCCCCCCC [rC10], the half-maximal binding in data set [1], in data set [2], in data set [3], in data set [4] and in data set [5] was above 200 µM each time. Moreover, the binding result in data set [6] is “binds”.
